This data set deals with STZ-induced diabetic rats. Kind of data set: Oral mixed-carbohydrate tolerance test (OMCTT) in STZ-induced diabetic rats (Example 9). The conditions noted are these: group characteristic, mean ± S.E.M. (n = 5). The data set is classed as in vivo, rat. As to the method:
Study in diabetic rats with mixed carbohydrates. Diabetic rats, induced by intravenous injection of streptozotocin (STZ; 40 mg/kg), were used to determining plasma glucose concentration (PG) 1 hr after oral mixed-carbohydrate tolerance test (OMCTT). […] Blood was collected via the caudal artery immediately before dosing and 0.5, 1, 2, and 3 hr after dosing. The glucose concentration measurement in plasma used Glucose CII-Test Wako kit (Wako Pure Chemicals Industries, Ltd., Osaka, Japan). The variables used for efficacy assessment were the measurement values of the plasma glucose concentration and the area under the curve for plasma glucose concentration through 1 hr after loading (ΔAUC0-1 hr). The ΔAUC0-1 hr for plasma glucose was calculated based on the trapezoid method using the change of plasma glucose concentrations from pre-value (0 hr).

`CC(C)c1[nH]nc(O[C@@H]2O[C@H](CO)[C@@H](O)[C@H](O)[C@H]2O)c1Cc1ccc(CCCC(=O)NC(C)(C)C(=O)N2CCNCC2)cc1` [KGA-2891] had a Body weight (0.1 mg/kg oral) of 300 ± 9 g.
Regarding `Cc1cc(OCCCNCC(N)=O)ccc1Cc1c(O[C@@H]2O[C@H](CO)[C@@H](O)[C@H](O)[C@H]2O)n[nH]c1C(C)C` [KGA-2588], the Body weight stood at 302 ± 8 g (0.03 mg/kg oral) and 294 ± 5 g (0.1 mg/kg oral).
For `Cc1cc(OCCCN)ccc1Cc1c(O[C@@H]2O[C@H](CO)[C@@H](O)[C@H](O)[C@H]2O)n[nH]c1C(C)C` [KGA-2586], the Body weight reads like this: (0.03 mg/kg oral) 295 ± 7 g; (0.1 mg/kg oral) 286 ± 6^ g.
Regarding `Cc1cc(OCCCNCC(C)(C)C(N)=O)ccc1Cc1c(O[C@@H]2O[C@H](CO)[C@@H](O)[C@H](O)[C@H]2O)n[nH]c1C(C)C` [mizagliflozin, 3-(3-{4-[3-(β-D-glucopyranosyloxy)-5-isopropyl-1H-pyrazol-4-ylmethyl-]-3-methylphenoxy}propylamino)-2,2-dimethylpropionamide], the Body weight runs as follows: (0.03 mg/kg oral) 298 ± 8 g; (0.1 mg/kg oral) 296 ± 8 g.
For `Cc1cc(OCCCNCCC(N)=O)ccc1Cc1c(O[C@@H]2O[C@H](CO)[C@@H](O)[C@H](O)[C@H]2O)n[nH]c1C(C)C` [KGA-2727], the Body weight is 283 ± 5 g (0.03 mg/kg oral) and 286 ± 3 g (0.1 mg/kg oral).

For the origin of these results see patent US11596644B2, “Method for treating post-prandial hypoglycemia” (AVOLYNT, priority 2018, dated 2023).
